Assay results taken from PMC10506250.
No constants are given. Whether binding was seen depends on the method and setting. Binding seen in cells or lysates may run through a third protein. Some entries that bind do so weakly or less than the wild type.

The chains behind the UniProt entries cited, without tags or fusion partners.
UniProt Q9JLV5: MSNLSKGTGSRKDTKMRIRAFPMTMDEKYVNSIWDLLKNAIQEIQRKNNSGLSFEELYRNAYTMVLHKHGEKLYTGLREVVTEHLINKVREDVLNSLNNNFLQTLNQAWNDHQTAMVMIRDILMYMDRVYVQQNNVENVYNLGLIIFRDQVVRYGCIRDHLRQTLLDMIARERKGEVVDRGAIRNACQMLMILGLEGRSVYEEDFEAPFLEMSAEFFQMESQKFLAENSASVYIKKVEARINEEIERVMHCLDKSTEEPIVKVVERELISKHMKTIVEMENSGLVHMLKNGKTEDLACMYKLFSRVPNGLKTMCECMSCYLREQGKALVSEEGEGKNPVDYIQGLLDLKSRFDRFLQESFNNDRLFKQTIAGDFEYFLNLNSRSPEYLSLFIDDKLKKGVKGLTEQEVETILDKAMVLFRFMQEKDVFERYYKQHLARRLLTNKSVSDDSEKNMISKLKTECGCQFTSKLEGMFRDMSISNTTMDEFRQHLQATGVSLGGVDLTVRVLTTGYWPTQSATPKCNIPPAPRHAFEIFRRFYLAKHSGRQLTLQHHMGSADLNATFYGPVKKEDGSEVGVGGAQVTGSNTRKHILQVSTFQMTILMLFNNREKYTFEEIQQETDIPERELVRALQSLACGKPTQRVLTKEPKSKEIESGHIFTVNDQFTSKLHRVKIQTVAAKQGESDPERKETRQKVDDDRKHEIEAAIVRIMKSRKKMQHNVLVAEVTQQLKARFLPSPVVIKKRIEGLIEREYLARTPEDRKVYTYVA

Molecular target: T1, Nuclear Factor Erythroid 2-Related Factor 2 (NFE2L2, Nrf2), endogenous in NIH-3T3 fibroblasts (mouse (endogenous in NIH-3T3)) (UniProt Q60795)
T1 sequence: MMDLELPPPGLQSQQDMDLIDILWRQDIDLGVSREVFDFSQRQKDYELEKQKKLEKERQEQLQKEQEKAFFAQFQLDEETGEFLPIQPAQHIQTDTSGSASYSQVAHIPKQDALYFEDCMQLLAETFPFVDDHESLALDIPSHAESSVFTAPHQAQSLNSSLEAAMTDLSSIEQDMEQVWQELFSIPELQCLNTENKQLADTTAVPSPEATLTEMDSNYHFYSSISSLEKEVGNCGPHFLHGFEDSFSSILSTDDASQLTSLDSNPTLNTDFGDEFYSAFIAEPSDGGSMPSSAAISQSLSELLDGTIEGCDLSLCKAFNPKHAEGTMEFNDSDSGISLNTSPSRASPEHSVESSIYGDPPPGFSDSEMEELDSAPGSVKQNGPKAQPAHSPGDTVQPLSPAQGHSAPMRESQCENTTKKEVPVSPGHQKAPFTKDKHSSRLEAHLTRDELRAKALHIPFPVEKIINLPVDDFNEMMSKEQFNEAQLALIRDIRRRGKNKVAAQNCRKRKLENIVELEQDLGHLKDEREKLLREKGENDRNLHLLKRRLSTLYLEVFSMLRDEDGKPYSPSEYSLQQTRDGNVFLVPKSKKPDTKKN
Assay: co-IP; NIH-3T3 lysate in NETN buffer (20 mM Tris pH 8.0, 100 mM NaCl, 1 mM EDTA, 0.5% NP-40), 1000 ug lysate, Protein G Sepharose beads and the indicated antibodies, immunoblot with anti-Nrf2 and anti-CUL3; cells treated with MG132, with or without miR-1290 mimic and CUL3 overexpression

- binding: binds
Substance: Cullin3 (CUL3), endogenous in NIH-3T3 fibroblasts (from UniProt Q9JLV5 1-768)
